No constants are given. Whether binding was seen depends on the method and setting. Binding seen in cells or lysates may run through a third protein. Some entries that bind do so weakly or less than the wild type.
Target: PPAR-γ, endogenous in 3T3-L1 cells (mouse (endogenous in 3T3-L1)) (UniProt P37238)
Assay: proximity ligation; Duolink in situ PLA with anti-RFP and anti-PPAR-γ antibodies on fixed, permeabilised 3T3-L1 cells, differentiated and undifferentiated

Protein sequences, listed by entry. Tags and fused reporters are not part of them.
UniProt P37238: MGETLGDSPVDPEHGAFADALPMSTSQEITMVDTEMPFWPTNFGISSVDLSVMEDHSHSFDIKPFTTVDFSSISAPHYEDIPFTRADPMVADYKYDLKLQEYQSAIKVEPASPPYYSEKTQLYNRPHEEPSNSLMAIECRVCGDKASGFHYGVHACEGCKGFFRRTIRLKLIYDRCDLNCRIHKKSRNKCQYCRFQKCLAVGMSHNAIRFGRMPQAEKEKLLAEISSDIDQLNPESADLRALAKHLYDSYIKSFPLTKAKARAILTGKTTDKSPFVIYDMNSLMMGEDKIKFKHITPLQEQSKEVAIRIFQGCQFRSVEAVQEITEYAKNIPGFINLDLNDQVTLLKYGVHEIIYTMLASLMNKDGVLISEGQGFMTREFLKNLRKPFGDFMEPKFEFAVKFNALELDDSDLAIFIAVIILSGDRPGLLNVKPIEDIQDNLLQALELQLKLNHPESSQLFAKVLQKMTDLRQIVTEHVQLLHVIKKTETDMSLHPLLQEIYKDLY

binding: binds
B1: Ret finger protein (RFP), endogenous in 3T3-L1 cells (protein, UniProt Q62158 1-513)
chain: MASGSVAECLQQETTCPVCLQYFVEPMMLDCGHNICCACLARCWGAAETNVSCPQCRETFPQRHMRPNRHLANVTQLVKQLRTERPSGPGGEMGVCEKHREPLKLYCEQDQMPICVVCDRSREHRGHSVLPLEEAVEGFKEQIQNRLDHLRRVKDLKKRRRAQGEQARAELLSLTQMEREKIVWEFEQLYHSLKEHEYRLLARLEELDLAIYNSINGAITQFSCNISHLSGLIAQLEEKQQQPTRELLQDIGDTLSRAERIRIPEPWITPPDLQEKIHIFAQKCLFLTESLKQFTEKMQSDMEKIQELREAQLYSVDVTLDPDTAYPSLILSDNLRQVRYSYLQQDLPDNPERFNLFPCVLGSPCFIAGRHYWEVEVGDKAKWTIGVCEDSVCRKGGVTSAPQNGFWAVSLWYGKEYWALTSPMTALPLRTPLQRVGIFLDYDAGEVSFYNVTERCHTFTFSHATFCGPVRPYFSLSYSGGKSAAPLIICPMSGIDGFSGHVGNHGHSMETSP

Reference: article PMC12508092
